Results reported in PubChem BioAssay AID2685 (National Center for Advancing Translational Sciences (NCATS), 2010).
In all, about 320,000 compounds went through this assay and about 2,100 (0.66%) were called active. Inconclusive results, whose numbers are uncertain, are shown with a selection of clear calls. The call rests on the fitted dose curve; in most records, active means well fitted inhibition curve with a large enough effect in the signal ratio, with a control signal flat (not every such curve was filed as active); inconclusive means small, poorly fitted or top-dose-only effect, or effect the other way, or a change in a side signal; inactive means flat fitted curve, though single readings scatter; the % refers to the signal ratio. Potencies of inconclusive entries are doubtful fits and often do not repeat.

Experiment: qHTS Assay for Lipid Storage Modulators in Drosophila S3 Cells
Conditions: BODIPY lipid droplet fluorescence, 18-24 h, cells fed with added oleic acid; lipid storage change, negative = inhibition: at 46.1 µM (top of the series) unless noted
In short: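 Drosophila S3 cells loaded with oleic acid (400 uM, as added) and compounds at several concentrations; lipid droplets imaged by 488-nm laser-scanning cytometry, 500–530 nm intensity and object ratio to cell channel. Percent activity normalized to 20 uM Triacsin C.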
On the % scale 0 is the no-effect control and ±100 the full control effect; potency means the concentration at half of the fitted maximal effect.

Row | Compound | Potency | lipid storage change, negative = inhibition | outcome
1 | CC1(c2ccccc2)NC(=O)N(CC(=O)NCc2ccc3c(c2)OCO3)C1=O (centres undefined) | inconclusive: 0.651 µM [activator, full curve] |  | 
2 | Cc1ccc2[nH]c(=O)c(CN(C(=O)c3cccs3)c3ccccc3)cc2c1 |  | inconclusive: 2.11% | 
3 | COC(=O)c1cn(C)c2ccc(S(=O)(=O)N3CCOCC3)cc2c1=O |  | inconclusive: -15.1% | 
4 | CCCOc1ccc(C(=O)CCC(=O)OCC(=O)Nc2cccc(S(N)(=O)=O)c2)cc1 |  | inconclusive | 
5 | Cc1ccc(-c2c(C(=O)NCc3ccc(F)cc3)oc(=O)c3ccccc23)cc1 |  | inconclusive: 22% | 
6 | Cc1ccc(C(=O)O/N=C(\N)c2cccnc2)cc1[N+](=O)[O-] |  | inconclusive: 21.1% | 
7 | Cc1cc(C(=O)N(C)Cc2c(F)cccc2Cl)c2ccccc2n1 | active: 5.17 µM |  | 
8 | O=C(COc1ncnc2scc(-c3ccccc3)c12)NCCN1C(=O)CSC1=O |  | inconclusive: 21% | 
9 | CCOC(=O)c1ccc(CNC(=O)Cn2nnc(-c3ccc(C)cc3)n2)o1 |  | inconclusive: 23.4% | 
10 | Cc1cc(NC(=O)CCC(=O)N(CC(=O)NC2CCCC2)Cc2ccccc2Cl)no1 |  | inconclusive: -2.72% | 
11 | CS(=O)(=O)Nc1ccc(C(=O)NCCSCc2ccco2)cc1 |  | inconclusive: -19% | 
12 | CCSCc1nnc(SCC(=O)c2ccc(OC)cc2)n1C |  | inconclusive: -2.29% | 
13 | CC(=O)c1ccccc1OC(=O)COc1ccc(Cl)cc1C |  | inconclusive: -31.9% [at 0.00295 µM] | 
14 | COc1ccccc1N1CCN(C(=O)C(=O)c2cn(CC(=O)N3CCCCCC3)c3ccccc23)CC1 | active: 11.6 µM |  | 
15 | O=C(COC(=O)c1ccc(Br)o1)NCc1ccc(F)cc1 |  | inconclusive: 7.04% | 
16 | COc1ccc(C(=O)C2CCCN(Cc3cccn3-c3nccs3)C2)cc1OC (centres undefined) |  | inconclusive: 23.5% | 
17 | COc1ccc(NC(=O)CSc2nnnn2C2CCCC2)cc1 |  | inactive: 15% | 
18 | Cc1cccc(NC(=O)c2nc[nH]c2C(=O)N[C@H](C)c2ccccc2)c1 |  | inconclusive: -18.8% | 
19 | COc1ccc(-c2cc(C(=O)Nc3cccc(O)c3)no2)cc1 |  | inconclusive: -1.83% | 
20 | CC(C)(C)c1ccc(OC2=CS(=O)(=O)c3ccccc32)cc1 | inconclusive: 18.4 µM [activator, single point] |  | 
21 | O=S(=O)(Nc1nc2ccccc2nc1N1CCN(CCO)CC1)c1cc(F)ccc1F | inconclusive: 29.1 µM [activator, single point] |  | 
22 | CCN(CC)C(=O)CNC(=O)Cc1ccc(Cl)cc1 | inconclusive: 23.1 µM [falling, single point] |  | 
23 | CCOC(=O)c1c(N)n(C2CC(C)(C)NC(C)(C)C2)c2nc3ccccc3nc12 |  | inconclusive: 7.91% | 
24 | O=C(CCn1cnnn1)N1CCCC(Nc2ccc(F)cc2)C1 (centres undefined) | inconclusive: 29.1 µM [activator, single point] |  | 
25 | COc1cc2[nH]c(=S)n(CC3CCCO3)c(=O)c2cc1OC (centres undefined) | inconclusive: 0.291 µM [activator, full curve] |  | 

Row | Compound | Potency | lipid storage change, negative = inhibition | outcome
26 | COCCn1c(SCc2ccccc2Cl)nc2c1c(=O)[nH]c(=O)n2C |  | inconclusive: 35.3% | 
27 | O=C(NCC1CCCO1)c1csc2c1CCCC2 (centres undefined) |  | inconclusive: 13% | 
28 | CN(C)CCN(Cc1ccco1)C(=O)c1cc2c(Cl)nc3ccccc3c2s1 | inconclusive: 2.59 µM [activator, full curve] |  | 
29 | Cc1ccc(NC(=O)COn2nnc3ccc(S(=O)(=O)N(C)C)cc32)cc1F | inconclusive: 2.59 µM [rising, partial curve] |  | 
30 | C1=C(c2ccccc2)Nc2ccccc2N=C1c1ccccc1 | inconclusive: 7.31 µM [activator, partial curve] |  | 
31 | COc1ccc(N2CCN(C(=O)C3(S(=O)(=O)c4ccc(C)cc4)CC3)CC2)cc1 |  | inconclusive: -5.23% | 
32 | O=C(CN1C(=O)NC2(CCCCC2)C1=O)Nc1ccc(Cl)c(S(=O)(=O)N2CCOCC2)c1 |  | inconclusive: -22.9% | 
33 | Cn1cc(S(=O)(=O)N2CCC3(CC2)OCCO3)c(=O)n(C)c1=O |  | inconclusive: 10.5% | 
34 | COc1cc(/C=C2\C(=N)N3N=CSC3=NC2=O)ccc1OS(=O)(=O)c1ccccc1 | active: 2.06 µM |  | 
35 | CC(Sc1nc(-c2ccccc2)cc(=O)[nH]1)C(=O)O (centres undefined) |  | inconclusive: 7.63% | 
36 | Cc1cccc(OCC(=O)N(C)CCc2ccccn2)c1 | inconclusive: 18.4 µM [activator, single point] |  | 
37 | COc1ccc(N=C(NN)c2ccc3ccccc3n2)cc1 | inconclusive: 5.8 µM [activator, partial curve, poor fit] |  | 
38 | C[C@@H]1CCC2[C@](C)(CO)[C@@H](O)CC[C@]2(C)[C@@]12CC[C@@](CO)(CC(=O)O)O2 (some centres undefined) |  | inconclusive: -19.1% | 
39 | O=C(NC(=S)Nc1ccccc1N1CCN(C(=O)c2ccccc2)CC1)c1ccccc1F |  | inconclusive: -55.6% | 
40 | COc1ccc(CC(=O)OCN2C(=O)c3ccccc3C2=O)cc1 |  | inconclusive: 55.1% | 
41 | O=C1NN(c2ccc(Cl)c(Cl)c2)C(=O)/C1=C/c1cccc(OC(=O)c2cccs2)c1 | active: 23.1 µM |  | 
42 | Cc1nn(-c2ccccc2)c(Cl)c1/C=N/NC(=O)CNC(=O)c1ccccc1Cl | inconclusive: 6.51 µM [falling, single point] |  | 
43 | COc1ccc(CCNC(=O)C2CCCN2C(=O)Nc2ccc(F)cc2)cc1OC (centres undefined) | inconclusive: 1.46 µM [activator, full curve, poor fit] |  | 
44 | Cc1cccn2c(=O)c3cc(C(=O)NC(C)C)c(=N)n(Cc4ccncc4)c3nc12 | inconclusive: 0.58 µM [rising, single point] |  | 
45 | COc1ccc(C(=O)NC(=S)Nc2ccc(S(=O)(=O)Nc3cc(OC)ncn3)cc2)cc1 | inconclusive: 0.651 µM [activator, full curve, poor fit] |  | 
46 | Brc1ccccc1C1=Nn2c(nnc2-c2ccco2)SC1 |  | inconclusive: -18.4% | 
47 | Cc1ccc([C@@H]2[C@@H]3C(=O)N(C)C(=O)[C@@H]3[C@@H]3C(=O)Nc4ccccc4C(=O)N23)cc1 | inconclusive: 0.0046 µM [falling, full curve, poor fit] |  | 
48 | CCN(CC)C(=O)c1cc([N+](=O)[O-])cc2c1-c1ccc([N+](=O)[O-])cc1C2=C(C#N)C#N |  | inconclusive: -35.7% | 
49 | CN(C)c1cccc(C(=O)OCC(=O)N(C)c2ccccc2)c1 |  | inconclusive: -100% | 
50 | COc1ccc(C(=O)NCC(=O)NCC(=O)OCC(=O)C(C)(C)C)cc1 |  | inconclusive: 6.36% | 

Row | Compound | Potency | lipid storage change, negative = inhibition | outcome
51 | Cc1ccc(S(=O)(=O)N2CCCC(C(=O)NCC3COCCO3)C2)cc1 (centres undefined) | inconclusive: 4.11 µM [activator, single point] |  | 
52 | CCCNc1nc2c(c(=O)[nH]c(=O)n2C)n1CCCc1ccccc1 |  | inconclusive: -6.77% | 
53 | COc1ccc(NC(=O)Nc2cc(C)ccc2F)cc1 | inconclusive: 13 µM [activator, single point] |  | 
54 | COCCCNC(=O)CNC(=O)c1cn(-c2ccccc2OC)c(=O)c2ccccc12 |  | inconclusive: -21.5% | 
55 | Cc1ccc(Cn2nnc3c(=O)[nH]c(C4CCN(S(=O)(=O)c5ccc(F)cc5)CC4)nc32)cc1 |  |  | inactive [at 46.1 µM]
56 | Cc1ccnc(NC(=O)CCC(=O)N(CC(=O)NC(C)(C)C)c2ccc3c(c2)OCO3)c1 | inconclusive: 0.58 µM [activator, single point] |  | 
57 | CCC(=O)NCC(c1cccs1)N1CCOCC1 (centres undefined) |  | inconclusive: -2.21% | 
58 | CCCn1c(N2CCN(CC(=O)c3c[nH]c4ccccc34)CC2)nc2c1c(=O)[nH]c(=O)n2C |  | inconclusive: 16.8% | 
59 | O=[N+]([O-])c1cccc(CN2CCN(c3ncccn3)CC2)c1 | inconclusive: 29.1 µM [activator, single point] |  | 
60 | O=C(NCc1ccco1)C1CCN(Cc2ccc(F)cc2)CC1 | inconclusive: 29.1 µM [falling, single point] |  | 
61 | CC(=O)c1cccc(NC2c3ccccc3C(=O)N2Cc2ccc3c(c2)OCO3)c1 (centres undefined) |  | inconclusive: 27.5% | 
62 | O=C(COC(=O)c1ccc(F)cc1Cl)NC1CCS(=O)(=O)C1 (centres undefined) |  | inconclusive: -0.925% | 
63 | Cc1onc(-c2ccccc2)c1C(=O)N(CC(C)C)c1c(N)n(CC(C)C)c(=O)[nH]c1=O |  | inconclusive: -83% | 
64 | O=Cc1sc(N2CCOCC2)nc1-c1ccccc1 |  | inconclusive: -13.2% | 
65 | O=C(c1cn(-c2ccccc2)nc1-c1cccnc1)N1CCCCC1 | inconclusive: 5.17 µM [activator, partial curve] |  | 
66 | CCC(OC(=O)CN1C(=O)C(=O)c2ccccc21)C(=O)Nc1ccccc1OC (centres undefined) |  | inconclusive: 22.9% | 
67 | Cc1cccc(C2CC(c3ccc(Br)cc3)Nc3nc(N)nn32)c1 (centres undefined) | inconclusive: 16.4 µM [activator, partial curve] |  | 
68 | CC(=O)Nc1ccc(NC(=O)COC(=O)CCc2nc3ccccc3s2)cc1 |  | inconclusive: -3.43% | 
69 | Cc1ccc(OCC(O)Cn2c(=N)n(CCN3CCOCC3)c3ccccc32)cc1 (centres undefined) |  | inconclusive: -0.0207% | 
70 | Cc1ccc2c(c1)C1CC(C)(O2)N(c2cccc(C(=O)N3CCN(c4ccccn4)CC3)c2)C(=O)N1 (centres undefined) | inconclusive: 29.1 µM [falling, single point] |  | 
71 | O=C(NCC1CCCO1)c1ccc(S(=O)(=O)N2CCCCC2)cc1 (centres undefined) | inconclusive: 4.11 µM [falling, full curve, poor fit] |  | 
72 | CCCN(c1ccccc1F)S(=O)(=O)c1cc(-c2cc(C)no2)ccc1OC | active: 4.61 µM |  | 
73 | Cc1nonc1C(=O)N/N=C/c1ccc(O)c(O)c1 |  | inconclusive: -33% | 
74 | O=c1ccc2cc(S(=O)(=O)N3CCN(c4ccccc4F)CC3)ccc2[nH]1 |  | inconclusive: -7.77% | 

Given as a markdown table: part of the list above

| Row | Compound | Potency | lipid storage change, negative = inhibition | outcome |
| --- | --- | --- | --- | --- |
| 52 | CCCNc1nc2c(c(=O)[nH]c(=O)n2C)n1CCCc1ccccc1 |  | inconclusive: -6.77% |  |
| 53 | COc1ccc(NC(=O)Nc2cc(C)ccc2F)cc1 | inconclusive: 13 µM [activator, single point] |  |  |
